Structures are written as SMILES. About 140 (10%) of roughly 1,400 compounds were called active.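 How the source made its calls: active means Half-maximal inhibitory dose from the fit at or below ten times the top valid tested dose; inconclusive means Invalid fit, or flat curve showing 30 to 70% inhibition; inactive means the rest.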 The entries are a selection whose mix differs from that of the whole data set. Measured potencies and affinities stand elsewhere.

Protein sequences, listed by entry. Tags and fused reporters are not part of them. Residues count along the entry.
UniProt Q9H3R0, 1-420 limits assumed: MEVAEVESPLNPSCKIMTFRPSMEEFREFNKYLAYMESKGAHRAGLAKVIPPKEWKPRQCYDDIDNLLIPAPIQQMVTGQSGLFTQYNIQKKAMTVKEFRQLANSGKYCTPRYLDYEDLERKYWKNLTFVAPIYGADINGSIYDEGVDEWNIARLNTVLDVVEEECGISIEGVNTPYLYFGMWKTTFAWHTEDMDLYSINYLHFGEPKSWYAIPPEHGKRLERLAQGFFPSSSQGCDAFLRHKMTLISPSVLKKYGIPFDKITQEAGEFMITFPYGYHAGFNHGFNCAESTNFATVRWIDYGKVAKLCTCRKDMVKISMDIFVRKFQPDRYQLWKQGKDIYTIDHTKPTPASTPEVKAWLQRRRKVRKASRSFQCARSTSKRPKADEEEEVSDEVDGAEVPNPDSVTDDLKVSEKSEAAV

This test concerns the target Lysine-specific demethylase 4C (Homo sapiens) (UniProt Q9H3R0). In words: inhibition of JMJD2C H3K9me3 demethylation – biochemical, DELFIA europium, cherry-picked samples, dose response (AID 488835).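 Further: signal is the H3K9me2 demethylation product detected by a dimethyl-specific antibody.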 The note with it: GST-JMJD2C(1-420); at 6 µM (top of the series) unless noted.
For `Cc1c(NC(=O)CCN2C(=O)c3ccccc3C2=O)c(=O)n(-c2ccccc2)n1C`, the activity change, negative = inhibition was inactive: -4.88%.
In the case of `Cc1ccc2nc(-c3cccc(NS(C)(=O)=O)c3)cc(-c3ccccc3)c2c1`, the activity change, negative = inhibition is inactive: 8.31%.
Consider `Cc1nnc(-c2cccc(Br)c2)c2cn(-c3ccccc3Cl)nc12`, for which the activity change, negative = inhibition is inactive: -0.242%.
Consider `O=c1c2cnn(-c3ccccc3)c2nc(-c2cccs2)n1-c1ccc(Cl)cc1`, for which the activity change, negative = inhibition was inactive: -0.616%.
Turning to `Cc1ccc(-c2noc(C3CCN(S(C)(=O)=O)CC3)n2)o1`, the activity change, negative = inhibition is inactive: -3.12%.
On to `CCC(=O)Nc1cc2c(cc1C(=O)CC)OCCO2`, for which the activity change, negative = inhibition is inactive: -4.12%.
On to `CCOc1ccc(CN(C)CC(=O)Nc2cc(C)c(C)cc2[N+](=O)[O-])cc1`, for which the activity change, negative = inhibition is inactive: -0.977%.
Consider `COc1ccc(NC(=S)NCCCn2ccnc2)cc1`, for which the activity change, negative = inhibition is inactive: -4.85%.
Consider `Cc1nc(C(C)NC(=O)CCc2nnc(CCCc3ccccc3)o2)c(C)s1` (stereo not drawn), for which the activity change, negative = inhibition was inactive: 4.59%.
The same measure for `CCOC(=O)c1sc(=S)n(-c2ccc(Cl)cc2)c1SC`: inactive: -5.62%; for `O=C(CSc1nnc(CNC(=O)c2ccco2)o1)NC1CCCC1`: inactive: -0.42% [at 1.6 µM]; for `CCCC(=O)NC(c1cccs1)c1cc(Cl)c2cccnc2c1O` (stereo not drawn): inactive: -4.81%.
For `O=C1CCCC2=C1C(c1ccc(OS(=O)(=O)c3ccc(Cl)cc3)cc1)C1=C(CCCC1=O)O2`, the activity change, negative = inhibition was inactive: 1.91%.
The same measure for `Cc1ccc(NC(=O)/C=C/c2cccs2)c([N+](=O)[O-])c1`: inactive: 7.91%.
`C#CCOCCOCCOCCNc1nc(N2CCN(C(=O)[C@H](CCCN=C(N)N)n3cc(C(N)[C@H](C)CC)nn3)CC2)nc(N2CCN(C(=O)[C@H](CC(N)=O)n3cc(C(N)[C@@H](C)CC)nn3)CC2)n1` (stereo partly drawn): the activity change, negative = inhibition was inactive: -2.68%.
Take `Cc1ccc(/C(N)=N/OC(=O)N2c3ccccc3Sc3ccccc32)cc1`: the activity change, negative = inhibition was inactive: -8.04%.
The same measure for `CCOC(=O)C1CCN(C(=O)CN(c2ccc(OC)c(OC)c2)S(=O)(=O)c2ccccc2)CC1`: inactive: 0.373%; for `CSc1ccc(-c2nc(CSCC(=O)N3CCOCC3)c(C)o2)cc1`: inactive: -2.12%.
With `NS(=O)(=O)c1ccc(CCNC(=O)CSc2ccccc2)cc1`, the activity change, negative = inhibition is inactive: 3.66%.
On to `COc1cc(/C=N/N2C(=O)C3C4c5ccccc5C(c5ccccc54)C3C2=O)ccc1O` (stereo not drawn), for which the activity change, negative = inhibition was inactive: -0.389%.
Take `CCCCCNc1nc(-c2ccccc2)nc(-n2ccnc2)n1`: the activity change, negative = inhibition was inactive: 0.629%.
`Cc1ccc(S(=O)(=O)Nc2ccc3c(c2)CC(=O)N([C@H](C)CO)C[C@@H](C)[C@H](CN(C)S(=O)(=O)c2ccccc2)O3)cc1`: the activity change, negative = inhibition is inactive: 4.66%.
On to `COc1ccc(-c2cc(C(F)(F)F)nc(SCCC(=O)NCc3ccco3)n2)cc1`, for which the activity change, negative = inhibition is inactive: 4.42%.

These data come from PubChem BioAssay AID488835 (Broad Institute, 2010).
